Measured values reported in patent US20160046582A1 (Teva Pharmaceutical Industries Ltd., priority 2014, published 2016).

Test: HPLC NEA and non-polar impurities (3-HLAQ, SPIRO-LAQ) in drug substance, Example 20
Settings: laquinimod sodium drug substance; for NEA and Non-Polar Imp.: Any Other Impurity / NEA and Non-Polar Imp.: NEA: spec NMT 0.10; for NEA and Non-Polar Imp.: Total: spec NMT 0.50

| SMILES | NEA and Non-Polar Imp.: Any Other Impurity | NEA and Non-Polar Imp.: NEA | NEA and Non-Polar Imp.: Total |
| --- | --- | --- | --- |
| CCN(C(=O)c1c([O-])c2c(Cl)cccc2n(C)c1=O)c1ccccc1.[Na+] [Batch 8] | LT 0.02% | LT 0.02% | LT 0.06% |
| CCN(C(=O)c1c([O-])c2c(Cl)cccc2n(C)c1=O)c1ccccc1.[Na+] [Batch 3] | LT 0.02% | LT 0.02% | LT 0.05% |
| CCN(C(=O)c1c([O-])c2c(Cl)cccc2n(C)c1=O)c1ccccc1.[Na+] [Batch 5] | LT 0.02% | LT 0.02% | LT 0.06% |
| CCN(C(=O)c1c([O-])c2c(Cl)cccc2n(C)c1=O)c1ccccc1.[Na+] [Batch 11] | LT 0.02% | LT 0.02% | LT 0.02% |
| CCN(C(=O)c1c([O-])c2c(Cl)cccc2n(C)c1=O)c1ccccc1.[Na+] [Batch 7] | LT 0.02% | LT 0.02% | LT 0.06% |
| CCN(C(=O)c1c([O-])c2c(Cl)cccc2n(C)c1=O)c1ccccc1.[Na+] [Batch 12] | LT 0.02% | LT 0.02% | LT 0.02% |
| CCN(C(=O)c1c([O-])c2c(Cl)cccc2n(C)c1=O)c1ccccc1.[Na+] [Batch 6] | LT 0.02% | LT 0.02% | LT 0.06% |
| CCN(C(=O)c1c([O-])c2c(Cl)cccc2n(C)c1=O)c1ccccc1.[Na+] [Batch 2] | LT 0.05% | LT 0.05% | LT 0.05% |
| CCN(C(=O)c1c([O-])c2c(Cl)cccc2n(C)c1=O)c1ccccc1.[Na+] [Batch 10] | LT 0.02% | LT 0.02% | LT 0.02% |
| CCN(C(=O)c1c([O-])c2c(Cl)cccc2n(C)c1=O)c1ccccc1.[Na+] [Batch 9] | LT 0.02% | LT 0.02% | LT 0.02% |
| CCN(C(=O)c1c([O-])c2c(Cl)cccc2n(C)c1=O)c1ccccc1.[Na+] [Batch 4] | LT 0.02% | LT 0.02% | LT 0.05% |
